{
  "sequences": {"note": "The chains behind the UniProt entries cited, without tags or fusion partners.", "UniProt Q01974, whole entry": "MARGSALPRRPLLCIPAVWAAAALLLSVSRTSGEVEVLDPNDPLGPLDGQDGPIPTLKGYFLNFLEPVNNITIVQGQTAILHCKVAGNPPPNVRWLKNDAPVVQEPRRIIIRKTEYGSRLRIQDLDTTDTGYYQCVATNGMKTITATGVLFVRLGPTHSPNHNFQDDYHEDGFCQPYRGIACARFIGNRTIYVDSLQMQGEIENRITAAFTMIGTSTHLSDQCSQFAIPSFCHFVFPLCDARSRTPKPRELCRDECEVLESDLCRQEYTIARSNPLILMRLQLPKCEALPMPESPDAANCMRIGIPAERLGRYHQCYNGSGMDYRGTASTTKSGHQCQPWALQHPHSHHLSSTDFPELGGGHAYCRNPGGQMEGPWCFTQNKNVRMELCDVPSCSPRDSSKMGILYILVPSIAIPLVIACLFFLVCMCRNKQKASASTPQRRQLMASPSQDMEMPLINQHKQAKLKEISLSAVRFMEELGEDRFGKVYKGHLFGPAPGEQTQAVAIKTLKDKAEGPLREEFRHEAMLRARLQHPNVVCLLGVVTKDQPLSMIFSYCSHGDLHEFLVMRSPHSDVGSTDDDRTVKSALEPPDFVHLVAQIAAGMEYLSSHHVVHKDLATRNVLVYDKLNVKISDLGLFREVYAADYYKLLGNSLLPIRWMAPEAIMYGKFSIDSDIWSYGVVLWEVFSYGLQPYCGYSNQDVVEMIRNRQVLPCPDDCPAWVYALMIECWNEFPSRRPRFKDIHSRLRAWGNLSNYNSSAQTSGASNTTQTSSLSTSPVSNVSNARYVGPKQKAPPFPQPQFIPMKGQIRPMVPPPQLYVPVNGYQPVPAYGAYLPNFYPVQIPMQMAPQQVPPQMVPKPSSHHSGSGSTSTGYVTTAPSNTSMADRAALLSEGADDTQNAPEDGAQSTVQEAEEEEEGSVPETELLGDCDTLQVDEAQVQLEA"},
  "source": "the supplement of paper PMC12823440",
  "about": "“Inhibitors supercharge kinase turnover through native proteolytic circuits” (Nature, 2025)",
  "note": "Where a name gives a salt, the structure may show the parent alone. The list shows a part of the results. The calls rarely recur for the same compound in another form.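 In K562 cells expressing nanoluciferase-fused kinases, luminescence was recorded at 4 h intervals between 2 and 18 h, normalized as percent of control with DMSO at 100% and a positive control at 0%. A significant (2 sigma) signal drop marks a time point as decreased. The authors' rule for a hit is not shown and takes in more than the number of time points.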",
  "data": [
    {"target": "ROR2 (UniProt Q01974)", "assay": "number of time points (of 5) at which kinase-Nluc abundance scored as decreased, DMSO-normalised (count); higher = more persistent destabilization", "settings": "K562; 2-18 h", "values": [
      {"smiles": "COc1ccc(Cn2cc(C(=O)N=Nc3c(O)[nH]c4c(C)cccc34)nn2)cc1", "note": "[MARK4 inhibitor 1] (10 µM)", "number of time points": 0},
      {"smiles": "COc1cc([N+](=O)[O-])ccc1S(=O)(=O)N1C[C@@H](CN2CCN(c3ccccn3)CC2)[C@H](c2cccc(F)c2)C1", "note": "(relative stereo) (10 µM)", "number of time points": 0},
      {"smiles": "Cc1cc(Nc2nc(N[C@@H](C)c3ccc(F)cc3)c(C#N)cc2F)n[nH]1", "note": "(10 µM)", "number of time points": 0},
      {"smiles": "Cc1ccc(S(=O)(=O)/C=C/C#N)cc1", "note": "(10 µM)", "number of time points": 0},
      {"smiles": "Cc1c(CN2CCN(S(C)(=O)=O)CC2)sc2c(N3CCOCC3)nc(-c3cnc(N)nc3)nc12", "note": "(2.5 µM)", "number of time points": 0},
      {"smiles": "COc1ccc(-c2ccc3c(N4CCOC[C@@H]4C)nc(N4CCOC[C@@H]4C)nc3n2)cc1CO", "note": "(2.5 µM)", "number of time points": 0},
      {"smiles": "CCN(CC)S(=O)(=O)c1ccc(OC)c(N2CCN(C(=O)c3ccc(F)cc3C(F)(F)F)CC2)c1", "note": "(10 µM)", "number of time points": 0},
      {"smiles": "CC1CN(C(=O)Nc2ccc(Cl)c(Cl)c2)C(=Nc2ccc(F)cc2)S1", "note": "(centres undefined) (10 µM)", "number of time points": 0},
      {"smiles": "COCCO[C@@H]1[C@H](O)[C@@H](CO)O[C@H]1n1cnc2c(=O)[nH]c(N)nc21", "note": "[2′-O-(2-Methoxyethyl)guanosine] (10 µM)", "number of time points": 0},
      {"smiles": "COc1cc(F)c(F)c(Nc2ccc(I)cc2F)c1NS(=O)(=O)C1(C[C@H](O)CO)CC1", "note": "[Refametinib] (10 µM)", "number of time points": 0},
      {"smiles": "CC(C)=CC[C@H](O)C1=CC(=O)c2c(O)ccc(O)c2C1=O", "note": "[(-)-Alkannin] (2.5 µM)", "number of time points": 0},
      {"smiles": "C[C@@]1(O)CCC[C@H]1n1c(=O)c(C(F)F)cc2cnc(NC3CCN(S(C)(=O)=O)CC3)nc21", "note": "(2.5 µM)", "number of time points": 0},
      {"smiles": "CS(=O)(=O)c1ccc(-c2noc(C(F)(F)F)c2-c2ccccc2)cc1", "note": "(10 µM)", "number of time points": 0},
      {"smiles": "COc1ccc2[nH]cc(/C=C3\\C(=O)Nc4ccc(NC(=O)CCN5CCCCC5)cc43)c2c1", "note": "(2.5 µM)", "number of time points": 0},
      {"smiles": "O=C(Nc1ccc(F)cc1F)[C@H](NC(=S)Nc1cc(C(F)(F)F)cc(C(F)(F)F)c1)c1ccccc1", "note": "(2.5 µM)", "number of time points": 0},
      {"smiles": "CC(C)CN[C@H]1CS(=O)(=O)C[C@@H]1S(=O)(=O)c1ccc(Cl)cc1", "note": "(10 µM)", "number of time points": 0},
      {"smiles": "COc1ccc(C2CC(c3ccccc3)=NN2c2ccc(S(N)(=O)=O)cc2)cc1", "note": "(centres undefined) (10 µM)", "number of time points": 0},
      {"smiles": "CC/C=C\\C/C=C\\C/C=C\\CCCCCCCC(=O)O", "note": "[α-Linolenic acid] (10 µM)", "number of time points": 0},
      {"smiles": "O=C(Nc1nc2ccccc2[nH]1)c1cccc(-n2cccc2)c1", "note": "(10 µM)", "number of time points": 0},
      {"smiles": "COc1ncc(-c2nc(N3CCOCC3)nc3c(CN4CCC(C(C)(C)O)CC4)cc(F)cc23)cc1NS(C)(=O)=O", "note": "[Linperlisib] (10 µM)", "number of time points": 0},
      {"smiles": "COc1ccc([C@H]2c3[nH]c4ccc(Cl)cc4c3CCN2C(=O)Oc2ccc(Cl)cc2)cc1", "note": "(2.5 µM)", "number of time points": 0},
      {"smiles": "COc1c(NC(=O)C(=O)c2ccc(OCCN3CCOCC3)c3ccccc23)cc(C(C)(C)C)cc1NS(C)(=O)=O", "note": "(2.5 µM)", "number of time points": 0},
      {"smiles": "COc1ccc([C@@H]2CC(=O)c3c(O)cc(O)cc3O2)cc1O", "note": "[Hesperetin] (10 µM)", "number of time points": 0},
      {"smiles": "N#Cc1cccc(-c2c[nH]c3ncnc(N4CCOCC4)c23)c1", "note": "(10 µM)", "number of time points": 0},
      {"smiles": "C/C(=C1/C(=O)Nc2ccc(NC(N)=O)cc21)c1ccc[nH]1", "note": "(10 µM)", "number of time points": 0},
      {"smiles": "Nc1ncnc2c1c(-c1ccc(Oc3ccccc3)cc1)nn2C1CCNCC1", "note": "[N-piperidine Ibrutinib (hydrochloride)] (10 µM)", "number of time points": 0},
      {"smiles": "N#Cc1ccc2ncnc(NC3CCC(N4CCOCC4)CC3)c2c1", "note": "(centres undefined) (10 µM)", "number of time points": 0},
      {"smiles": "CC(=O)c1c(C)c2cnc(Nc3ccc(N4CCN(CCCCNC(=O)COc5cccc6c5C(=O)N(C5CCC(=O)NC5=O)C6=O)CC4)cn3)nc2n(C2CCCC2)c1=O", "note": "(centres undefined) (10 µM)", "number of time points": 0},
      {"smiles": "CC(C)=CC(=O)CCC(=O)N1CCN(Cc2cc3nc(-c4cccc5[nH]ncc45)nc(N4CCOCC4)c3s2)CC1", "note": "(10 µM)", "number of time points": 0},
      {"smiles": "Cc1ccc(S(=O)(=O)Nc2ccccc2C=Nc2ccccc2NS(=O)(=O)c2ccc(C)cc2)cc1", "note": "(10 µM)", "number of time points": 0},
      {"smiles": "NCCN1CCN(C/C=C/C(=O)N2CCC[C@@H](n3nc(-c4ccc(Oc5ccccc5)cc4)c4c(N)ncnc43)C2)CC1", "note": "[Ibrutinib-MPEA] (10 µM)", "number of time points": 0},
      {"smiles": "O=C(CNC(=O)c1ccc(-c2ccccc2)cc1)NC1CCCc2ccccc21", "note": "(centres undefined) [TAO Kinase inhibitor 1] (10 µM)", "number of time points": 0},
      {"smiles": "CC(C)CN(CC(=O)N1CCN(CC(OCc2ccc3ccccc3c2)c2ccc(Cl)cc2Cl)CC1)CC(C)C", "note": "(centres undefined) [LYN-1604 (dihydrochloride)] (2.5 µM)", "number of time points": 0},
      {"smiles": "CO[C@H]1C[C@@H]2CC[C@@H](C)[C@@](O)(O2)C(=O)C(=O)N2CCCC[C@H]2C(=O)O[C@H]([C@H](C)C[C@@H]2CC[C@@H](O)[C@H](OC)C2)CC(=O)[C@H](C)/C=C(\\C)[C@@H](O)[C@@H](OC)C(=O)[C@H](C)C[C@H](C)/C=C/C=C/C=C/1C", "note": "[Rapamycin] (10 µM)", "number of time points": 0},
      {"smiles": "Cc1ccc(Nc2cc(-c3cccc(N4C(=O)c5ccccc5C4=O)c3)ncn2)cc1NS(C)(=O)=O", "note": "(10 µM)", "number of time points": 0},
      {"smiles": "Nc1cc(Nc2ccc(S(N)(=O)=O)cc2)ncn1", "note": "(10 µM)", "number of time points": 0},
      {"smiles": "CCOc1cc(C(=O)N2CCC(N3CCN(C)CC3)CC2)ccc1Nc1ncc2c(n1)N(C1CCCC1)c1ccccc1C(=O)N2C", "note": "(10 µM)", "number of time points": 0},
      {"smiles": "COCCOc1ccc(-c2cn(-c3ccccc3)c3nc[nH]c(=O)c23)cc1", "note": "(10 µM)", "number of time points": 0},
      {"smiles": "Cc1cc(O)c(C(C)C)cc1N=O", "note": "[Poloxime] (10 µM)", "number of time points": 0}
    ]}
  ]
}
